Data source: PubChem BioAssay AID1053208 (Peter MacCallum Cancer Centre, 2014)
The whole screen tested about 17,000 reagents; shown is a random part of them. 788 of them (4.7%) count as active. 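Calls rest on z-score classes alone; an extra cut-off of viability at most 70% of control was not applied to them.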 Reagents against one gene are numbered here. Further read-outs or replicates are left out here.

- Test: 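Find knock-downs that sensitise mouse osteosarcoma cells to doxorubicin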 (primary screen)
- System: mouse osteosarcoma cells, early-passage culture from an engineered mouse model of fibroblastic bone tumour
- Reagents: siRNA pool against mouse genes, 40 nM
- Timing: about 120 h (48 h before drug, then 72 h with drug)
- Conditions: doxorubicin 100 nM for 72 h, roughly 30-40% inhibitory dose
- Detection: 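Viability read as ATP luminescence after 72 h of 100 nM doxorubicin or none, duplicate wells averaged, scaled to non-targeting siRNA, then expressed as robust z-scores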
- Reading the numbers: viability z-score with doxorubicin: higher = more viable cells under doxorubicin; viability z-score without drug: higher = more viable cells with knock-down alone; z-score of drug to no-drug ratio: higher = less drug sensitisation by knock-down
- Hit rule: 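a pool counts as active when its viability z-score with doxorubicin is -2 or below and its z-score without drug lies between -2 and 2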

| gene | reagent no. | combined z-score class | viability z-score with doxorubicin | viability z-score without drug | z-score of drug to no-drug ratio | Outcome |
| --- | --- | --- | --- | --- | --- | --- |
| Dnajc5g (DnaJ heat shock protein family (Hsp40) member C5 gamma) | 1 | low cell count with doxorubicin only | -2.7 | 0.51 | -3.04 | active |
| Or6c1b (olfactory receptor family 6 subfamily C member 1B) | 1 | no change with or without drug | -0.45 | -1.18 | 0.45 | inactive |
| Ccdc34 (coiled-coil domain containing 34) | 1 | no change with or without drug | 0 | -1.18 | 1.01 | inactive |
| Nog (noggin) | 1 | no change with or without drug | 1.57 | -0.34 | 2.02 | inactive |
| Vmn1r208 (vomeronasal 1 receptor 208) | 1 | no change with or without drug | 0.45 | -1.18 | 1.46 | inactive |
| A630091E08Rik (RIKEN cDNA A630091E08 gene) | 1 | no change with or without drug | 0.34 | 0.34 | 0.22 | inactive |
| Fam3d (FAM3 metabolism regulating signaling molecule D) | 1 | no change with or without drug | -1.46 | -0.34 | -1.24 | inactive |
| Zcchc14 (zinc finger, CCHC domain containing 14) | 1 | no change with or without drug | 0 | -0.51 | 0.45 | inactive |
| Retnla (resistin like alpha) | 1 | no change with or without drug | 1.01 | -0.34 | 1.46 | inactive |
| Sectm1a (secreted and transmembrane 1A) | 1 | no change with or without drug | -0.45 | -0.51 | 0 | inactive |
| Prkdc (protein kinase, DNA activated, catalytic polypeptide) | 1 | low cell count without drug only | 0.9 | -2.19 | 2.92 | inactive |
| Itpr1 (inositol 1,4,5-trisphosphate receptor 1) | 1 | no change with or without drug | -0.34 | 0.67 | -0.67 | inactive |
| Mmaa (methylmalonic aciduria (cobalamin deficiency) type A) | 1 | no change with or without drug | -0.67 | 1.18 | -1.35 | inactive |
| Spock3 | 1 | no change with or without drug | 0.22 | 0.17 | 0.22 | inactive |
| Smarcb1 (SWI/SNF related BAF chromatin remodeling complex subunit B1) | 1 | no change with or without drug | 0.45 | 1.35 | -0.34 | inactive |
| Prpsap1 (phosphoribosyl pyrophosphate synthetase-associated protein 1) | 1 | no change with or without drug | 0.22 | -0.34 | 0.56 | inactive |
| Wrnip1 (Werner helicase interacting protein 1) | 1 | no change with or without drug | 1.24 | 0.51 | 1.01 | inactive |
| Srprb (signal recognition particle receptor, B subunit) | 1 | no change with or without drug | -0.9 | 0.17 | -0.9 | inactive |
| Nherf1 (NHERF family PDZ scaffold protein 1) | 1 | no change with or without drug | 0.11 | -0.67 | 0.67 | inactive |
| Rap1b (RAS related protein 1b) | 1 | no change with or without drug | 0.9 | 1.18 | 0.22 | inactive |
| Ripk3 (receptor-interacting serine-threonine kinase 3) | 1 | no change with or without drug | 0.56 | 0.84 | 0.11 | inactive |
| Traf1 (TNF receptor-associated factor 1) | 1 | no change with or without drug | 1.01 | 0.67 | 0.67 | inactive |
| Gpx5 (glutathione peroxidase 5) | 1 | no change with or without drug | 0.11 | 0.17 | 0.11 | inactive |
| Pcnx3 (pecanex homolog 3) | 1 | no change with or without drug | 0.9 | 1.18 | 0.22 | inactive |
| Cd300lb (CD300 molecule like family member B) | 1 | no change with or without drug | 1.01 | 0.17 | 1.01 | inactive |
| Nek6 (NIMA (never in mitosis gene a)-related expressed kinase 6) | 1 | no change with or without drug | -0.34 | -1.18 | 0.56 | inactive |
| Cpt1c (carnitine palmitoyltransferase 1c) | 1 | no change with or without drug | -0.34 | -0.51 | 0.11 | inactive |
| Efna1 (ephrin A1) | 1 | no change with or without drug | -0.9 | -0.84 | -0.22 | inactive |
| Ppp1r37 (protein phosphatase 1, regulatory subunit 37) | 1 | no change with or without drug | 1.12 | 0.17 | 1.12 | inactive |
| Hoxa4 (homeobox A4) | 1 | no change with or without drug | 1.35 | -0.51 | 1.91 | inactive |
| Ece2 (endothelin converting enzyme 2) | 1 | no change with or without drug | -0.45 | -0.51 | 0 | inactive |
| Ece2 (endothelin converting enzyme 2) | 2 | no change with or without drug | -0.45 | -0.17 | -0.22 | inactive |
| Cort (cortistatin) | 1 | no change with or without drug | 1.69 | 0.84 | 1.24 | inactive |
| Prss3b (serine protease 3B) | 1 | no change with or without drug | 0.67 | -0.17 | 0.9 | inactive |
| Chia1 (chitinase, acidic 1) | 1 | no change with or without drug | -1.12 | -0.67 | -0.67 | inactive |
| Mthfd1l | 1 | no change with or without drug | -0.45 | 0.17 | -0.45 | inactive |
| Tm9sf1 (transmembrane 9 superfamily member 1) | 1 | no change with or without drug | -0.67 | -0.84 | 0 | inactive |
| Fbxo45 (F-box protein 45) | 1 | no change with or without drug | -0.11 | -0.17 | 0.11 | inactive |
| Rbm4b (RNA binding motif protein 4B) | 1 | no change with or without drug | 0 | 0.17 | 0 | inactive |
| Or2t47 (olfactory receptor family 2 subfamily T member 47) | 1 | no change with or without drug | -1.24 | -1.52 | -0.11 | inactive |
| Pira6 (paired-Ig-like receptor A6) | 1 | no change with or without drug | 0.56 | -0.84 | 1.35 | inactive |
| Foxd1 (forkhead box D1) | 1 | no change with or without drug | 0.79 | 0.51 | 0.56 | inactive |
| Lman1l (lectin, mannose-binding 1 like) | 1 | no change with or without drug | 0.22 | -0.17 | 0.45 | inactive |
| Hsd17b4 (hydroxysteroid (17-beta) dehydrogenase 4) | 1 | no change with or without drug | -1.35 | -1.52 | -0.34 | inactive |
| Smcp (sperm mitochondria-associated cysteine-rich protein) | 1 | no change with or without drug | -1.57 | -0.84 | -1.01 | inactive |
| Por (cytochrome p450 oxidoreductase) | 1 | no change with or without drug | 1.35 | 1.85 | 0.22 | inactive |
| Yars2 (tyrosyl-tRNA synthetase 2 (mitochondrial)) | 1 | no change with or without drug | -1.8 | -1.18 | -1.01 | inactive |
| Lrrtm2 (leucine rich repeat transmembrane neuronal 2) | 1 | no change with or without drug | 0.22 | -0.34 | 0.56 | inactive |
| Kpna2 (karyopherin subunit alpha 2) | 1 | no change with or without drug | -0.9 | -1.01 | -0.11 | inactive |
| Nos3 (nitric oxide synthase 3, endothelial cell) | 1 | no change with or without drug | -0.22 | -1.52 | 1.01 | inactive |
